Measured values reported in US20220288151A1, “COMPOSITIONS AND METHODS FOR TREATING NEUROLOGICAL DISEASES” (CARMEL HAIFA UNIVERSITY ECONOMIC CORPORATION LTD., priority 2019, published 2022).
Entries after “also recorded” stand apart in the source; their conditions may differ. At least one structure is not confirmed: it was looked up by name or label, or the drawing left a doubt.

Key:
[1] = system: DCX positive neurons in the DG; experiment: DCX staining, adult-neurogenesis analysis (immature neurons) in the DG; assay type: in vivo, mice
[2] = system: BrdU positive cells in the DG; experiment: BrdU staining, adult-neurogenesis analysis (proliferation) in the DG; assay type: in vivo, mice
[3] = C57BL/6 WT mice, enriched environment and voluntary exercise, TMZ 20 mg/kg i.p. three times a week for four weeks vs vehicle
[4] = CaMKII-Cre-injected eEF2K floxed mice, TMZ i.p. vs vehicle

Which results are given for `Cn1nnc2c(C(N)=O)ncn2c1=O` [TMZ, Temozolomide]?
effect on enriched environment-induced increase in DCX positive neurons [1, 3]: blocked; effect on increase in DCX positive cells caused by reduced eEF2K expression [1, 4]: occluded; DCX positive cells in CaMKII-GFP mice treated with TMZ compared to vehicle ([1]; CaMKII-GFP-injected eEF2K floxed mice (control virus), TMZ i.p. vs vehicle): non-significant reduced levels of DCX positive cells; effect on enriched environment-induced increase in BrdU positive cells [2, 3]: precluded; also recorded: blocked; effect on increase in BrdU positive cells caused by reduced eEF2K expression [2, 4]: precluded; also recorded: blocked; also recorded: occluded
